Data as given in PubChem BioAssay AID493246 (Drosophila RNAi Screening Center, 2011).

- Aim: 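Genes fly cells need to grow and stay alive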 (primary screen)
- Cell system: Drosophila Kc and S2R+ cells
- Reagents: long dsRNA against Drosophila genes
- Measured: 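Raw, unnormalised count of remaining cells in each well; per-plate z-scores of cell number underlie the calls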
- Scale: Kc cell number and S2R+ cell number: higher = more cells remaining
- Rule for the call: 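Active when the per-plate z-score of cell number is 3 or more in the direction of fewer cells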
In all, the deposit lists about 21,000 reagents; below is a random part of those that have a named target and a result. In the full data, 429 (2%) were called active. 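Values are raw and not normalised between plates; calls rest on per-plate z-scores that were not deposited.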 A plus sign joins genes that one reagent is predicted to hit. Not given: the amount of reagent, the time to read-out.

target,dsRNA,"Kc cell number, rep 1","Kc cell number, rep 2","S2R+ cell number, rep 1","S2R+ cell number, rep 2",Outcome
Ppat-Dpck,DRSC09744,1.62e6,1.67e6,1.15e6,1.19e6,inactive
CG18266,DRSC02659,1.36e6,1.69e6,2.96e5,2.10e5,inactive
CG16989,DRSC18535,1.46e6,1.42e6,9.57e5,1.04e6,inactive
CG13427,DRSC06389,1.69e6,1.71e6,1.26e6,1.56e6,inactive
Gr32a (Gustatory receptor 32a),DRSC02400,1.50e6,1.59e6,1.24e6,1.37e6,inactive
CG8492,DRSC10984,1.44e6,1.68e6,1.27e6,1.26e6,inactive
CG42360,DRSC04224,1.50e6,1.55e6,1.30e6,1.39e6,inactive
CG15404,DRSC00418,1.63e6,1.65e6,1.23e6,1.35e6,inactive
Cep97 (Centrosomal protein 97kDa),DRSC00637,1.38e6,1.36e6,9.90e5,1.05e6,inactive
Cpr49Ab (Cuticular protein 49Ab),DRSC05341,1.52e6,1.54e6,1.01e6,1.12e6,inactive
Brms1 (BRMS1 transcriptional repressor),DRSC19896,1.54e6,1.45e6,9.28e5,1.00e6,inactive
Ank (Ankyrin),DRSC17127,4.94e5,,7.66e5,,inactive
CG3092,DRSC04336,1.29e6,1.42e6,1.20e6,1.19e6,inactive
CG7968,DRSC01903,1.52e6,1.59e6,1.17e6,1.36e6,inactive
CG1648,DRSC06610,1.45e6,1.48e6,1.07e6,1.16e6,inactive
vir-1 (virus-induced RNA 1),DRSC02501,1.52e6,1.68e6,1.20e6,1.33e6,inactive
vir-1 (virus-induced RNA 1),DRSC02863,1.46e6,1.56e6,9.48e5,1.03e6,inactive
CG33453,DRSC05782,5.62e5,,8.20e5,,inactive
CG6191,DRSC05938,1.22e6,1.41e6,7.75e5,8.05e5,inactive
CR18166 (pseudo),DRSC17260,1.25e6,1.40e6,1.07e6,1.14e6,inactive
CR18166 (pseudo),DRSC18147,1.67e6,1.63e6,1.03e6,1.13e6,inactive
Asciz (ASCIZ zinc finger protein),DRSC08421,1.43e6,1.44e6,1.05e6,1.16e6,inactive
mRpL55 (mitochondrial ribosomal protein L55),DRSC14764,1.56e6,1.48e6,9.11e5,1.07e6,inactive
CG13609,DRSC14612,1.49e6,1.78e6,1.09e6,1.19e6,inactive
CG6709 + Hez,DRSC10165,1.24e6,1.33e6,1.31e6,1.32e6,inactive
CG6709 + Hez,DRSC10698,1.35e6,1.38e6,1.30e6,1.34e6,inactive
mbm (mushroom body miniature),DRSC00319,1.31e6,1.33e6,9.39e5,9.31e5,inactive
cass (cassowary),DRSC01850,1.22e6,1.28e6,8.90e5,1.04e6,inactive
alpha-Est4aPsi (pseudo),DRSC12473,1.40e6,1.45e6,1.12e6,1.32e6,inactive
CG32204,DRSC09574,1.64e6,1.61e6,9.70e5,1.18e6,inactive
CG17780 + CG17781,DRSC15266,1.51e6,1.64e6,1.03e6,1.09e6,inactive
sut3 (sugar transporter 3),DRSC07702,1.51e6,1.57e6,1.29e6,1.33e6,inactive
Jhbp7 (Juvenile hormone binding protein 7),DRSC14408,1.70e6,1.77e6,1.02e6,1.10e6,inactive
St3 (Sulfotransferase 3),DRSC04505,1.35e6,1.44e6,1.16e6,1.24e6,inactive
CG5793,DRSC15874,1.37e6,1.51e6,9.66e5,1.24e6,inactive
Blm + CG14721,DRSC14943,1.40e6,1.50e6,1.24e6,1.38e6,inactive
Tbp (TATA binding protein),DRSC04662,1.61e6,1.75e6,1.30e6,3.44e5,inactive
CG9471,DRSC16499,1.68e6,1.68e6,1.25e6,1.37e6,inactive
Ir60d (Ionotropic receptor 60d),DRSC04218,1.57e6,1.56e6,1.26e6,1.39e6,inactive
mRpL2 (mitochondrial ribosomal protein L2),DRSC10896,1.32e6,1.19e6,1.03e6,1.16e6,inactive
CG41020 (retired record),DRSC20866,1.25e6,1.52e6,1.16e6,1.13e6,inactive
mav (maverick),DRSC17149,1.58e6,1.58e6,1.04e6,1.20e6,inactive
CG32069 + Blos2,DRSC10621,1.37e6,1.41e6,1.19e6,1.11e6,inactive
RpL35A (Ribosomal protein L35A),DRSC12302,9.85e5,1.10e6,7.17e5,8.16e5,active
CG3788,DRSC04418,1.58e6,1.65e6,1.39e6,1.51e6,inactive
CG10934,DRSC06017,1.28e6,1.36e6,1.10e6,1.18e6,inactive
CG8675,DRSC20117,1.45e6,1.55e6,1.05e6,1.14e6,inactive
inaD (inactivation no afterpotential D),DRSC04694,1.65e6,1.71e6,1.29e6,1.38e6,inactive
GstD3 (Glutathione S transferase D3),DRSC15571,1.40e6,1.37e6,1.14e6,1.26e6,inactive
Cadps (Calcium-dependent secretion activator),DRSC21057,1.44e6,1.48e6,1.04e6,1.10e6,inactive
CG4404,DRSC19897,1.49e6,1.48e6,9.11e5,9.87e5,inactive
Ubqn (Ubiquilin),DRSC19581,1.64e6,1.67e6,1.04e6,1.18e6,inactive
fun (retired record),DRSC12300,1.44e6,1.47e6,1.17e6,1.22e6,inactive
Nbr (Nibbler),DRSC03166,1.24e6,1.29e6,1.11e6,1.15e6,inactive
CG4393,DRSC15573,1.67e6,1.68e6,1.10e6,1.27e6,inactive
CG3009,DRSC18263,5.58e5,,8.48e5,,inactive
CG14662,DRSC12248,1.77e6,1.71e6,1.40e6,1.39e6,inactive
Yif1 (Yip1-interacting factor 1),DRSC15817,1.51e6,1.55e6,9.49e5,1.24e6,inactive
Nep2 (Neprilysin 2),DRSC12126,1.52e6,1.58e6,1.47e6,1.46e6,inactive
ND-24 (NADH dehydrogenase (ubiquinone) 24 kDa subunit),DRSC19960,1.45e6,1.46e6,9.27e5,1.04e6,inactive
CG3708,DRSC18646,1.62e6,1.66e6,1.04e6,1.18e6,inactive
NAT1,DRSC06854,1.50e6,1.53e6,1.14e6,1.24e6,inactive
Eogt (EGF-domain O-GlcNAc transferase),DRSC00727,1.34e6,1.43e6,1.03e6,9.79e5,inactive
sel (seele),DRSC06232,1.49e6,1.48e6,1.07e6,1.18e6,inactive
Cpr64Ad (Cuticular protein 64Ad),DRSC08284,1.69e6,1.42e6,1.04e6,1.38e6,inactive
santa-maria,DRSC00994,1.51e6,1.54e6,9.99e5,1.12e6,inactive
santa-maria,DRSC02180,1.26e6,1.33e6,6.24e5,8.32e5,inactive
CG16890,DRSC01890,1.25e6,1.36e6,1.26e6,1.05e6,inactive
Jhbp6 (Juvenile hormone binding protein 6),DRSC11714,1.54e6,1.66e6,1.20e6,1.37e6,inactive
Dap160 (Dynamin associated protein 160),DRSC03313,1.37e6,1.50e6,1.05e6,1.09e6,inactive
sip2 (septin interacting protein 2),DRSC03154,1.63e6,1.41e6,1.10e6,1.20e6,inactive
CG34427,DRSC09978,1.30e6,1.31e6,1.15e6,1.14e6,inactive
CG8838,DRSC00712,1.28e6,1.41e6,1.17e6,1.18e6,inactive
Ent1 (Equilibrative nucleoside transporter 1),DRSC00330,1.32e6,1.37e6,1.04e6,1.05e6,inactive
hbs (hibris),DRSC07627,1.54e6,1.57e6,1.33e6,1.42e6,inactive

Entries listed so far whose target name begins with M or m (4):
target,dsRNA,"Kc cell number, rep 1","Kc cell number, rep 2","S2R+ cell number, rep 1","S2R+ cell number, rep 2",Outcome
mRpL55 (mitochondrial ribosomal protein L55),DRSC14764,1.56e6,1.48e6,9.11e5,1.07e6,inactive
mbm (mushroom body miniature),DRSC00319,1.31e6,1.33e6,9.39e5,9.31e5,inactive
mRpL2 (mitochondrial ribosomal protein L2),DRSC10896,1.32e6,1.19e6,1.03e6,1.16e6,inactive
mav (maverick),DRSC17149,1.58e6,1.58e6,1.04e6,1.20e6,inactive
